The values below come from article PMC10446823.

Sequences of proteins named here, by UniProt entry; tags and fusion partners are left off.
UniProt P22626: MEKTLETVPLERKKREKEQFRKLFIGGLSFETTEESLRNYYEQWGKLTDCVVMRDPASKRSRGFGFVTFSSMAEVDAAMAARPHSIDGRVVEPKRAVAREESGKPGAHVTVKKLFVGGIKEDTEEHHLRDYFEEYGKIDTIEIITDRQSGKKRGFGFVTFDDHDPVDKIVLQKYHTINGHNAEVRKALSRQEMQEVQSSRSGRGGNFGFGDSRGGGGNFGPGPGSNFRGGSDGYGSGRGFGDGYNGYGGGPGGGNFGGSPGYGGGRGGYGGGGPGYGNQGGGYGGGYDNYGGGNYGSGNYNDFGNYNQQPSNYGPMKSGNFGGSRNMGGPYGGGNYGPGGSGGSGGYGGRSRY
UniProt P25963: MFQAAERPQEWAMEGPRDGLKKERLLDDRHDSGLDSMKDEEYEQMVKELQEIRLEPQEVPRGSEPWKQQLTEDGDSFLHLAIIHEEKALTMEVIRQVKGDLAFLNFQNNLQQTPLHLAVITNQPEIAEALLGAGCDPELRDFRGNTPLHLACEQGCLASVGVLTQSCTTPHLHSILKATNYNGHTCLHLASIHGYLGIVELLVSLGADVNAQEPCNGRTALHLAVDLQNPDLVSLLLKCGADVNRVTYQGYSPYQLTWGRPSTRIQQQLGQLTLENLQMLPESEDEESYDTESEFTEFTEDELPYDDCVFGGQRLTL

No constants are given. Whether binding was seen depends on the method and setting. Binding seen in cells or lysates may run through a third protein. Some binding calls cover weakened binding; strength is not graded here. Sequences can lack the tags named with a protein.

The experiment deals with hnRNPA2B1 (overexpressed in HEK293 for the co-immunoprecipitation with IκB-flag) (human) (UniProt P22626). Nature of the experiment: co-IP; HEK293 transfected with hnRNPA2B1 and IκB-flag; protein A/G-Sepharose beads charged with anti-hnRNPA2B1 antibody or mouse normal serum.

On to IκBα-flag (from UniProt P25963 1-317), for which the binding entry is recorded as “binds”.

B1: IκBε-flag (protein, UniProt O00221 1-500)
chain: MNQRRSESRPGNHRLQAYAEPGKGDSGGAGPLSGSARRGRGGGGAIRVRRPCWSGGAGRGGGPAWAVRLPTVTAGWTWPALRTLSSLRAGPSEPHSPGRRPPRAGRPLCQADPQPGKAARRSLEPDPAQTGPRPARAAGMSEARKGPDEAEESQYDSGIESLRSLRSLPESTSAPASGPSDGSPQPCTHPPGPVKEPQEKEDADGERADSTYGSSSLTYTLSLLGGPEAEDPAPRLPLPHVGALSPQQLEALTYISEDGDTLVHLAVIHEAPAVLLCCLALLPQEVLDIQNNLYQTALHLAVHLDQPGAVRALVLKGASRALQDRHGDTALHVACQRQHLACARCLLEGRPEPGRGTSHSLDLQLQNWQGLACLHIATLQKNQPLMELLLRNGADIDVQEGTSGKTALHLAVETQERGLVQFLLQAGAQVDARMLNGCTPLHLAAGRGLMGISSTLCKAGADSLLRNVEDETPQDLTEESLVLLPFDDLKISGKLLLCTD
B1: the binding result is given as “binds”.
